The campaign covered roughly 330,000 compounds. About 230 (0.07%) were called active. Inconclusive results, whose numbers are uncertain, are shown with a selection of clear calls.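 Rule for the calls: active = more than half of a compound's replicate wells show inhibition beyond 50%, single wells judged on their own value; inconclusive = some, but no more than half, of replicates pass 50% inhibition; inactive = no replicate passes 50% inhibition.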
Target: Lysine-specific demethylase 4C (Homo sapiens) (UniProt Q9H3R0)
Experiment: inhibitors of GASC-1 histone demethylase, primary screen, biochemical, fluorescence, DELFIA europium (AID 2099);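 note: signal counts dimethyl H3K9 product captured on neutravidin plate; 0% = median of DMSO wells and 100% = 0.3 times that DMSO median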
Conditions: GST-JMJD2C(1-420) H3K9me3 demethylation, at 2.35 µM, active compounds read high

Protein sequences, listed by entry. Tags and fused reporters are not part of them. Residues count along the entry.
UniProt Q9H3R0, 1-420 limits assumed: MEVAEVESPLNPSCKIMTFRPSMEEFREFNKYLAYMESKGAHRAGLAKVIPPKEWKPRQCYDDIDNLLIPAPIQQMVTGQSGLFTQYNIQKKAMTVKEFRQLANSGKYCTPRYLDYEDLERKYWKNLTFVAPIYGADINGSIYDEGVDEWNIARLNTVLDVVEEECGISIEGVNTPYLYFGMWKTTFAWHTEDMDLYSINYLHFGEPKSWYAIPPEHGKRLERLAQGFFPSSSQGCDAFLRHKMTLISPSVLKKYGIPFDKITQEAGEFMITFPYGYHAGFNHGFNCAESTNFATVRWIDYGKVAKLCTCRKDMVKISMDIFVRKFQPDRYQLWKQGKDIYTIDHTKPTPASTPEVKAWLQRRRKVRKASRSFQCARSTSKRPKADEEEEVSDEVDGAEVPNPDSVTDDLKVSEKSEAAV

SMILES | inhibition
COc1ccc(CCn2c(=N)c(S(=O)(=O)c3ccc(Cl)cc3)cc3c(=O)n4ccccc4nc32)cc1 | inconclusive: -146%
CCOc1ccc(/C=N/NC(=S)Nc2c(C)cccc2C)cc1 | inconclusive: -87.7%
C=C(C)COc1ccc2c(C)c(CCC(=O)NC3CC3)c(=O)oc2c1 | inconclusive: -87.8%
CCCSc1ccc([C@H]2N[C@@](Cc3ccccc3)(C(=O)OC)[C@H]3C(=O)N(CC)C(=O)[C@@H]23)cc1 | inconclusive: -242%
O=C1C(Cl)=C(N2CCOCC2)C(=O)N1c1ccccc1Cl | inconclusive: -114%
CCOC(=O)c1cc(C(C)(C)C)nc(SC)c1C#N | inconclusive: -28.7%
Cc1cccc(NC(=O)C2CCN(S(=O)(=O)c3cccc4nsnc34)CC2)n1 | active: 51.7%
O=C(OCC1OC(Oc2ccc(O)cc2)C(O)C(O)C1O)c1ccccc1 (configuration not stated) | inconclusive: -289%
COC(C[C@H]1O[C@H]1[C@@H](O)[C@H](C)OCc1ccccc1)OC | inconclusive: -167%
COc1ccc(C2=Nc3cccc4cccc(c34)N2)cc1 | inconclusive: -58.1%
O=C(Nc1cccc(-c2nnc(-c3ccccc3)o2)c1)c1ccco1 | inactive: -1.82%
CCOc1cc(C)nc(NCc2ccccc2)n1 | inconclusive: -306%
O=C(/C=C/c1ccc(O)cc1)c1ccc(NC2=C(N3CCCCC3)C(=O)c3ccccc3C2=O)cc1 | inconclusive: -57.5%
CCCn1nc2cc(C(=O)NCc3ccc(OC)cc3)ccc2c1OCC | inconclusive: -213%
Cc1ccc(NC(=O)COC(=O)CN2C(=O)c3ccccc3C2=O)cc1S(=O)(=O)N(C)C | inconclusive: -213%
CN1CCC(N2CCN(c3cccc(C(F)(F)F)c3)CC2)CC1 | inconclusive: -81.3%
COc1cc2c(cc1OC)C(C)N(C(=O)c1sc(-c3cnccn3)nc1C)CC2 (configuration not stated) | inconclusive: -57.1%
Cc1cnn(C(=O)c2ccccc2Br)c1 | active: 85.5%
COCCCN1C(=O)c2ccc(C(=O)N3CCN(c4ccccc4OC)CC3)cc2C1=O | inconclusive: -122%
Cc1cccc(CN2CCN(C(=S)Nc3ccccc3)CC2)c1 | inactive: 4.81%
COC(=O)c1cc(S(=O)(=O)NC2CCC(C)CC2)cn1C (configuration not stated) | inactive: 8.61%
O=C(Nc1ccc(Cl)cc1)N1CCN(c2ccccc2)CC1 | active: 51.9%

SMILES | inhibition
COc1ccccc1NC(=O)c1ccccc1C(=O)N(C)Cc1ccccc1 | inactive: -1.53%
CC#CCc1cc2ccccc2c(=O)o1 | inconclusive: -65.2%
COc1ccccc1C(=O)C1CCCN(Cc2ccc(Oc3ncccn3)cc2)C1 (configuration not stated) | inconclusive: -63.4%
Cc1ccc(N(CC(O)CON=C2c3ccccc3-c3ccccc32)S(C)(=O)=O)cc1 (configuration not stated) | inconclusive: -182%
O=C(COC(=O)c1cccc([N+](=O)[O-])c1)NCc1ccc2c(c1)OCO2 | inactive: -2.2%
COc1ccc(C(=O)NCC(c2ccc(F)cc2)N2CCOCC2)cc1S(=O)(=O)N1CCCC1 (configuration not stated) | inconclusive: -102%
CC(Oc1cccc(Cl)c1)C(=O)Nc1ccccc1N1CCCC1 (configuration not stated) | inconclusive: -55%
Cc1ccccc1OCCCn1c(CO)nc2ccccc21 | inconclusive: -54.6%
CN(C)CCCN(C(=O)c1ccco1)c1nc2cc3c(cc2s1)OCO3 | inactive: 18.3%
O=C(CN1C(=O)S/C(=C\c2ccccc2F)C1=O)NC1C=CS(=O)(=O)C1 (configuration not stated) | inconclusive: -113%
CC[n+]1c(/C=C/N(C)c2ccccc2)oc2ccccc21 | inactive: -0.201%
Cc1ccc(S(=O)(=O)N2CCC(=O)N(CCOCc3ccc(C(F)(F)F)cc3)CC2)cc1 | inactive: -0.882%
COc1ccc(/C=N/n2cnnc2)cc1COc1ccccn1 | inconclusive: -128%
CCCC1CC(CCc2ccccc2)OS(=O)(=O)N1 (configuration not stated) | inconclusive: -191%
COCCCN(Cc1ccco1)C(=O)Cn1ncc2c(=O)oc3ccc(C)cc3c21 | inactive: 4.3%
CC1CCCCN1CCNC(=O)CCc1nnc2n(Cc3ccccc3)c(=O)c3ccccc3n12 (configuration not stated) | inactive: 4.33%
Oc1ccccc1Nc1ccccn1 | inactive: -0.653%
CCOc1ccc(CN2CCN(Cc3cn(CC)nc3C)CC2CCO)cc1 (configuration not stated) | inconclusive: -68.3%
Cc1cc(C)c2nc(-c3ccccn3)cc(C(=O)NCc3cc(C)n(C)n3)c2c1 | inconclusive: -55.6%
O=C1NC2(CCCCC2)CO1 | inconclusive: -82.4%
COc1ccc(/C=N/NC(=O)c2cc(O)c(O)c(O)c2)cc1Cn1cc([N+](=O)[O-])cn1 | inconclusive: -144%
CCn1c(-c2ccc(-c3ccccc3)cc2)c[nH]c1=S | inactive: 3.08%

Grouped by structure, the entries above with a CF3 group
SMILES | inhibition
CN1CCC(N2CCN(c3cccc(C(F)(F)F)c3)CC2)CC1 | inconclusive: -81.3%
Cc1ccc(S(=O)(=O)N2CCC(=O)N(CCOCc3ccc(C(F)(F)F)cc3)CC2)cc1 | inactive: -0.882%

(next part)

SMILES | inhibition
O=C(CSc1nc(-c2ccco2)cc(C(F)(F)F)n1)Nc1ccc2c(c1)CCC2 | inactive: 0.088%
CN(C(=O)COC(=O)C1(C)CC1(Cl)Cl)c1c(N)n(Cc2ccccc2)c(=O)[nH]c1=O (configuration not stated) | inactive: -18.5%
CCOc1ccc(CNS(=O)(=O)c2cc(-c3cc(C)no3)ccc2OC)cc1OC | inconclusive: -119%
Cc1[nH]c2ccccc2c1/C=N/NC(=O)c1cc(C(C)(C)C)[nH]n1 | inconclusive: -50.6%
Cc1ccc(/C=C/C(=O)Nc2ccc([N+](=O)[O-])cc2)o1 | inactive: -10.4%
CNc1ccccc1C(C)(C)c1cc(-c2cccc(OC)c2)no1 | inconclusive: -73.5%
CC(Oc1ccc2c(-c3ccccc3)cc(=O)oc2c1)C(=O)NCCN1CCOCC1 (configuration not stated) | inconclusive: -94%
C[C@]12CCC(=O)C=C1CC[C@@H]1[C@@H]2C(=O)C[C@@]2(C)[C@H]1CC[C@]2(O)C(=O)CO | inconclusive: -38.8%
O=C(NN=C1C2CC3CC(C2)CC1C3)c1cccs1 | inconclusive: -65.1%
COc1ccc(CNC(=S)N/N=C/c2ccncc2)cc1 | inactive: 4.75%
CC1(c2ccc(Cl)cc2Cl)NC(=O)N(CC(=O)NC2CCCCC2)C1=O (configuration not stated) | inactive: -1.25%
O=C(CS(=O)(=O)c1ccccc1)N(CCCN1CCOCC1)c1nc2c(F)cccc2s1 | inactive: -1.72%
COc1ccc(S(=O)(=O)N2CCC(C(=O)NCCC(=O)NC3CC3)CC2)cc1 | inconclusive: -150%
CCOc1cc(CN2CCCC(N3CCc4ccccc4C3)C2)ccc1O (configuration not stated) | inconclusive: -59.7%
CNC[C@@H]1Oc2ccc(NS(=O)(=O)c3ccc(Cl)cc3)cc2C(=O)N([C@H](C)CO)C[C@@H]1C | inactive: -5.77%
COc1cc2c(C#N)c(N3CCOCC3)nc(N)c2c(N)n1 | inconclusive: -61.3%
Cc1cc(C)c2c(=O)[nH]c(SCC(=O)Nc3ccc(N(C)C)cc3)nc2n1 | inactive: 7.81%
CCC(C)c1ccc(O)c(NC(=O)c2ncn[nH]2)c1 (configuration not stated) | inconclusive: -51.8%
COc1ccc(OC)c(S(=O)(=O)N2CCC(C(=O)NC(C)c3ccccc3)CC2)c1 (configuration not stated) | inconclusive: -50.9%
O=C(NCc1cccc(C(F)(F)F)c1)C1CCCN(c2cnccn2)C1 (configuration not stated) | inactive: -28%
O=C(O)c1ccc(NS(=O)(=O)c2cccc3nsnc23)cc1 | inconclusive: -76.6%
Cc1ccc(OCC(=O)NS(=O)(=O)c2ccccc2)cc1 | inconclusive: -55.6%

Two of the compounds above, field by field.
O=C1NC2(CCCCC2)CO1
  inhibition: inconclusive: -82.4%
COc1ccc(/C=N/NC(=O)c2cc(O)c(O)c(O)c2)cc1Cn1cc([N+](=O)[O-])cn1
  inhibition: inconclusive: -144%

Single entries from the results shown.
CCOc1cc(CN2CCCC(N3CCc4ccccc4C3)C2)ccc1O (configuration not stated) – inhibition: inconclusive: -59.7%
Cc1[nH]c2ccccc2c1/C=N/NC(=O)c1cc(C(C)(C)C)[nH]n1 – inhibition: inconclusive: -50.6%

The listing continues:

SMILES | inhibition
Cc1ccc(-c2nn(CC(N)=O)c(=O)c3ccccc23)cc1S(=O)(=O)N(C)C | inconclusive: -57%
Cc1ccc(NC(=O)COc2ccc(C(=O)c3ccccc3)cc2)c(O)c1 | inconclusive: -70%
CCC(OC(=O)c1cccs1)C(=O)NC1CCCCC1 (configuration not stated) | inconclusive: -58.8%
N/C(=N\O)c1ccc([N+](=O)[O-])s1 | inconclusive: -26.8%
COc1ccc(-c2cc(C(=O)Nc3c(C)n(C)n(-c4ccccc4)c3=O)c3ccccc3n2)c(OC)c1 | inconclusive: -127%
O=C(NC1CC2CCC1C2)C1COc2ccccc2O1 (configuration not stated) | active: 67.6%
Cc1cc(COc2ccccc2)oc1C(=O)O | inactive: 4.85%
CCc1ccc(CN(C)C(=O)c2cc(S(=O)(=O)N3CCN(CC)CC3)ccc2Cl)cc1 | inconclusive: -131%
CN(C)CCCN(C(=O)c1ccc(S(=O)(=O)N2CCCC2)cc1)c1nc2c(F)cc(F)cc2s1 | inconclusive: -45.8%
O=C(COc1ccccc1Cl)NC(=O)NC1CCCC1 | inactive: 21.8%
O=C(/C=C/c1ccc(Br)cc1)NC(=O)c1ccccc1O | inactive: -10.2%
Cc1ccc(C)c(NC(=O)CCC(=O)N/N=C/c2cc([N+](=O)[O-])ccc2O)c1 | inactive: -7.54%
O=C(Cn1c(=O)c2c(ncn2C2CCCC2)n(Cc2ccccc2)c1=O)N1CCc2ccccc21 | inconclusive: -62.2%
COC(C[C@@H](O)CC(=O)[C@@H](C)OCc1ccccc1)OC | inconclusive: -133%
O=C(COC(=O)/C=C/c1ccc(OC(F)F)cc1)NC1CCCCCCC1 | inconclusive: -156%
COc1ccccc1NC(=O)CSc1nc2ccccc2n1C(C)=O | inconclusive: -89.9%
CN1C=CC2=C(C#N)C(N)C(C#N)(C#N)[C@H](c3ccccc3)[C@H]2C1 (some centres not stated) | inactive: 0.0717%
CC(C)[C@H](NC(=O)[C@@H]1Cc2ccccc2CN1C(=O)OC(C)(C)C)C(=O)NC1CCCC1 | inconclusive: -114%
O=C(Nc1ccc2c(c1)N(S(=O)(=O)c1cccs1)CCC2)c1c(F)cccc1Cl | inconclusive: -55.3%
COCc1cc(=O)n2[nH]c(-c3ccsc3-n3c(C)ccc3C)cc2n1 | inconclusive: -28.9%
CCN(C[C@H]1N[C@@](C)(C(=O)OC)[C@H]2C(=O)N(C)C(=O)[C@@H]12)C(=O)Nc1ccccc1 | active: 54.5%

Source: PubChem BioAssay AID2099 (Broad Institute, 2009)
